Our source for the AC50 values is PubChem BioAssay AID1487 (National Center for Advancing Translational Sciences (NCATS), 2009).

The nature of this test: qHTS Assay for Modulators of Lamin A Splicing. The note with it: HeLa LMNA splicing GFP/RFP minigene ratio, 48 h. Put shortly:
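Read-out is the ratio of GFP to DsRed2 object intensity, acquired by 488 nm laser-scanning cytometry on HeLa lamin A-EGFP minigene reporter cells. Compound incubation 48 hrs at 37 °C in Opti-MEM with 2% FBS; DMSO 0.5% final.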
For orientation: qHTS replaces the single test concentration by a dilution series.

Setting [1] is: measured here: RFP viability control channel.
Setting [2] is: measured here: GFP splicing reporter channel.

The list shows a part of the results. The main result of the screen is listed elsewhere. These columns were measured beside it and carry no call. The list favours compounds with an active or inconclusive main result. Words in brackets tell the shape of the fitted curve; partial curves, single points and poor fits give uncertain potencies.

As usually defined, the AC50 is the concentration giving half of the maximal activity seen. Consider `O=c1c2ccccc2nc(-c2ccoc2)n1CCc1ccccc1`, for which, under setting [1], the AC50 was 28.2 µM [rising, single point].
Regarding `COc1ccc(/C=N/NC(=O)c2ccco2)cc1Cn1nc(C)cc1C`, under setting [1], the AC50 is 35.5 µM [rising, single point].
The same measure, in the same setting: the result for `Cc1cccc(C)c1OCC(=O)Nc1nc(-c2ccc(Br)cc2)ns1` reads 25.1 µM [rising, single point]; that for `Cc1ccc(C(=O)NC(=S)NNC(=O)c2ccccc2[N+](=O)[O-])cc1`, 12.6 µM [rising, partial curve].
With `Cc1cc(C)cc(-n2c(C)cc(/C=N/NC(=O)CSc3ncccn3)c2C)c1`, the AC50 is, setting by setting: under setting [2], 25.1 µM [falling, single point]; under setting [1], 12.6 µM [falling, single point].
As for `COc1ccc([N+](=O)[O-])cc1COc1cc(C)cc2oc(=O)cc(-c3ccccc3)c12`, the AC50 under setting [1] was 0.355 µM [falling, partial curve].
The same measure, in the same setting: in the case of `CCN(CC)CCCNC(=O)C1CCN(S(=O)(=O)CC)CC1` it was 0.0501 µM [rising, full curve, poor fit].
`COc1cc(CNCc2cccnc2)ccc1OCc1ccccc1`: the AC50 under setting [1] is 0.0708 µM [falling, full curve, poor fit].
`CC(=O)c1ccc(NC(=O)c2c3c(nc4ccccc24)C(=O)N(C2CCCCC2)C3)cc1`: the AC50 under setting [1] is 0.0126 µM [falling, full curve, poor fit].
Regarding `CCOc1ccc2nc(NC(=O)CSc3nnnn3C3CCCCC3)sc2c1`, under setting [1], the AC50 is 14.1 µM [rising, partial curve].
With `O=C(OC1CCCCC1)c1ccc(NC(=O)c2ccco2)cc1`, the half-maximal activity concentration (AC50) by setting is: under setting [2], 35.5 µM [rising, single point]; under setting [1], 35.5 µM [rising, single point].
For `COc1ccc(C2C(C(=O)NCCN3CCOCC3)c3ccccc3C(=O)N2C)cc1OC` (stereo unspecified), the AC50 under setting [2] is 0.708 µM [falling, full curve] and the AC50 under setting [1] is 0.891 µM [falling, full curve].
In the case of `Cc1cccc(Cn2cc(C(=O)Nc3ccc(F)c(C(F)(F)F)c3)ccc2=O)c1`, the AC50 reads like this: under setting [2], 15.8 µM [falling, single point]; under setting [1], 15.8 µM [falling, single point].
Regarding `CCOC(=O)C1(CCSC)NC(c2ccco2)C2C(=O)N(C)C(=O)C21` (stereo unspecified), the concentration at half-maximal activity (AC50) under setting [2] is 7.08 µM [falling, partial curve, poor fit].
On to `COc1ccc2c(-c3ccccc3)cc(SCC(=O)N(C)C)nc2c1`, for which the AC50 under setting [2] is 11.2 µM [falling, single point] and the concentration at half-maximal activity (AC50) under setting [1] was 1.12 µM [falling, partial curve, poor fit].
Consider `Cn1c(CNC(=O)c2ccccc2F)nnc1SCCOc1ccccc1`, for which the AC50 under setting [2] is 35.5 µM [falling, single point].
`O=C(/C=C/c1ccc(S(=O)(=O)N2CCOCC2)cc1)NC(=S)Nc1ccc(Cl)cc1Cl`: the concentration at half-maximal activity (AC50) was 31.6 µM [falling, single point] under setting [2] and 35.5 µM [falling, single point] under setting [1].
As to `c1cncc(-c2nn3c(Cn4nnc5ccccc54)nnc3s2)c1`, the AC50 runs as follows: under setting [2], 6.31 µM [rising, partial curve, poor fit]; under setting [1], 10 µM [rising, single point].
Turning to `CCCCNC(=O)COC(=O)CCC(=O)c1ccc(Cl)cc1`, the AC50 runs as follows: under setting [2], 1.78 µM [falling, partial curve]; under setting [1], 3.55 µM [falling, single point].
In the case of `CCc1c(C)nc2cc(-c3cc(OC)cc(OC)c3)nn2c1N1CCCC1`, the half-maximal activity concentration (AC50) under setting [1] is 15.8 µM [rising, single point].
For `O=C(CSc1nccn1-c1ccc(Cl)cc1)Nc1ccc2c(c1)OCO2`, the AC50 under setting [1] was 20 µM [rising, single point].
In the case of `CC(=O)OCCCCCCCCCCC[N+]1(C)CCCCC1`, the concentration at half-maximal activity (AC50) was 0.891 µM [falling, full curve] under setting [2] and 4.47 µM [falling, partial curve] under setting [1].
As for `CC(C)NCC(O)Cn1c2c(c3ccccc31)CCc1c-2cnn1-c1ccccc1` (stereo unspecified), the AC50 was 2.51 µM [rising, full curve, poor fit] under setting [2] and 11.2 µM [rising, partial curve] under setting [1].
Regarding `Cc1ccc(NS(=O)(=O)c2cc(Br)cc3c2N(C(=O)C2CC2)CC3)cc1C`, the AC50 under setting [2] is 1.58 µM [rising, partial curve, poor fit] and the concentration at half-maximal activity (AC50) under setting [1] is 2.24 µM [rising, full curve, poor fit].
Turning to `O=C(CSc1ncn[nH]1)Nc1nc(-c2ccccc2)cs1`, under setting [1], the concentration at half-maximal activity (AC50) was 22.4 µM [rising, single point].
For the molecule `CC(=O)Oc1ccc2c(c1OC(C)=O)OCC1(O)Cc3c(cc(OC(C)=O)c(OC(C)=O)c3OC(C)=O)C21` (stereo unspecified), the AC50 is 35.5 µM [falling, single point] under setting [2] and 35.5 µM [falling, single point] under setting [1].
On to `COc1ccc(C)cc1NC(=O)c1cnc2sccn2c1=O`, for which the AC50 under setting [1] was 0.126 µM [falling, full curve, poor fit].
On to `O=C1OCCN1C(=O)[C@H]1[C@H](c2ccc(F)cc2)C(c2ccc(F)cc2)=NN1c1ccc(Br)cc1`, for which the AC50 is 35.5 µM [falling, partial curve, poor fit] under setting [2] and 35.5 µM [falling, partial curve] under setting [1].
Turning to `O=C(c1ccc(Cn2cc(Br)cn2)cc1)N1CCN(c2ccccc2)CC1`, the concentration at half-maximal activity (AC50) under setting [1] was 28.2 µM [rising, single point].
As for `CCOc1cc(/C=N/N=C2/NC(=O)C(CC(=O)O)S2)ccc1OCc1ccc(Cl)cc1Cl` (stereo unspecified), the AC50 under setting [2] is 2 µM [falling, partial curve].
Regarding `CC1CCN(c2nncc3ccccc23)CC1`, under setting [1], the concentration at half-maximal activity (AC50) is 5.62 µM [rising, single point].
On to `COc1ccccc1CC(=O)Nc1cc(Cl)ccc1O`, for which the AC50 under setting [1] was 35.5 µM [rising, single point].
In the case of `NC(=O)N/N=C/c1cn(-c2ccccc2)nc1-c1ccccc1`, the concentration at half-maximal activity (AC50) runs as follows: under setting [2], 3.98 µM [falling, single point]; under setting [1], 3.98 µM [falling, single point].
`CCn1c(=O)n(CC)c2cc(N3CCCCC3)c(NC(=O)Nc3ccccc3Cl)cc21`: the AC50 under setting [1] was 35.5 µM [falling, single point].
As to `COC(=O)Cn1c(=NC(=O)c2ccc(OC)cc2)sc2cc(OC)ccc21`, the AC50 under setting [1] is 35.5 µM [rising, single point].
`C=C(C(=O)c1ccccc1)C(C)CC(=O)c1ccccc1` (stereo unspecified): the AC50 is, setting by setting: under setting [2], 28.2 µM [falling, single point]; under setting [1], 2.82 µM [rising, partial curve, poor fit].
With `O=C(C1CCCCN1S(=O)(=O)c1ccccc1[N+](=O)[O-])N1CCOCC1` (stereo unspecified), the AC50 under setting [1] was 15.8 µM [falling, single point].
With `CC(=O)C1C(=O)c2c(cccc2[N+](=O)[O-])C1=Nc1ccc(S(N)(=O)=O)cc1` (stereo unspecified), under setting [2], the AC50 is 0.447 µM [rising, full curve].
For the molecule `CS(=O)(=O)N(CCc1ccccc1)CC(=O)N1CCN(c2ccccc2)CC1`, the half-maximal activity concentration (AC50) under setting [1] was 12.6 µM [rising, single point].
In the case of `CCOC(=O)c1c(CN2CCC(C)CC2)oc2ccc(OC)cc12`, the half-maximal activity concentration (AC50) under setting [2] was 35.5 µM [rising, single point].
On to `Cc1ccnn1C(C)C(=O)O` (stereo unspecified), for which, under setting [2], the half-maximal activity concentration (AC50) was 6.31 µM [falling, partial curve, poor fit].
Turning to `CCCn1c(SCC(=O)c2cc(C)n(-c3ccc4c(c3)OCO4)c2C)n[nH]c1=O`, the half-maximal activity concentration (AC50) under setting [1] was 11.2 µM [rising, partial curve].
Same read-out and setting: the result for `CCC(C)NC(=O)Cn1c(=O)cc(-c2ccccc2)c2c(C)nn(C)c21` (stereo unspecified) reads 0.0631 µM [falling, full curve].
On to `CN1C2CCC1CC(OC(=O)c1c[nH]c3ccccc13)C2` (stereo unspecified), for which the AC50 under setting [2] was 0.0112 µM [falling, full curve, poor fit].
As for `COc1ccccc1-c1ccc2ncnc(N3CCOCC3)c2c1`, the half-maximal activity concentration (AC50) is, setting by setting: under setting [2], 6.31 µM [falling, partial curve]; under setting [1], 12.6 µM [falling, partial curve].
Consider `CC(=O)NCCNc1ncnc2ccc(-c3ccccc3C#N)cc12`, for which the AC50 under setting [2] is 2.51 µM [falling, partial curve, poor fit].
Turning to `O=C(CCc1nc(-c2ccccc2F)no1)Nc1ccc(Oc2ccccc2)cc1`, the AC50 under setting [1] is 3.55 µM [rising, full curve].
`CCc1cc2cc(C)cc(C)c2nc1SCC(=O)Nc1cc(C)on1`: the AC50 under setting [1] is 0.00891 µM [falling, full curve].
For the molecule `Cc1cc(NO)nc(-c2ccc(Br)cc2)n1`, the AC50 under setting [2] is 10 µM [rising, single point] and the AC50 under setting [1] is 10 µM [rising, single point].
In the case of `COc1ccc(-n2c(C)cc(C(=O)COc3ccc(C)nc3[N+](=O)[O-])c2C)cc1`, the AC50 is 14.1 µM [rising, partial curve, poor fit] under setting [2] and 22.4 µM [rising, partial curve] under setting [1].
As to `O=C(Nc1ccc(Cl)c(Cl)c1)Nc1nc(-c2ccccc2)cs1`, under setting [1], the concentration at half-maximal activity (AC50) is 20 µM [rising, partial curve, poor fit].
For `CCN(CC)S(=O)(=O)c1ccc(NS(=O)(=O)CC23CCC(CC2=O)C3(C)C)cc1` (stereo unspecified), the half-maximal activity concentration (AC50) under setting [1] is 35.5 µM [rising, single point].
On to `N#Cc1nc(COc2ccccc2F)oc1NCCc1ccccc1`, for which the half-maximal activity concentration (AC50) under setting [1] is 20 µM [rising, partial curve].
For the molecule `COC(=O)c1ccccc1NC(=O)NCCc1c(C)nn(C)c1C`, under setting [1], the AC50 is 0.0891 µM [falling, full curve].
For `CCCN(Cc1ccccc1)C(=S)NC(=O)c1ccccc1[N+](=O)[O-]`, the concentration at half-maximal activity (AC50) by setting is: under setting [2], 5.62 µM [falling, single point]; under setting [1], 7.08 µM [falling, full curve, poor fit].
For the molecule `CCOC(=O)Cn1c(=O)oc2cc(S(=O)(=O)NCc3ccccn3)ccc21`, the AC50 under setting [1] was 3.98 µM [falling, single point].
For `CC(N=C1CC(C)(C)CC(=O)/C1=C(/O)CCCN1C(=O)c2ccccc2C1=O)C(=O)O` (stereo unspecified), under setting [2], the AC50 was 0.0112 µM [rising, full curve, poor fit].
